Results: patent US20260199282A1, “METHODS AND COMPOSITIONS FOR IMPROVING DRIVING PERFORMANCE” (priority 2022, published 2026)

System: subjects with EDS due to OSA
Experiment: Actigraphy and sleep diary, OSA study
Assay type: in vivo, human
Details: end of treatment period

**Q.** What does the source list for NC(=O)OC[C@H](N)Cc1ccccc1 [Solriamfetol, (R)-2-amino-3-phenylpropyl carbamate]?
**A.** total sleep time, reduction from baseline (mean change): 16.29 min; Sleep Onset Latency for 24-hours, change from baseline, mean (mITT): -6.44 min; Sleep Onset Latency for 24-hours, change from baseline, mean difference (JZP-110 − Placebo) (mITT): 0.50 min; Sleep Onset Latency for 24-hours, change from baseline, median (mITT): -4.75 min; Sleep Onset Latency for 24-hours, change from baseline, median difference (JZP-110 − Placebo) (mITT): −1.50 min; Sleep Period (Time in Bed), change from baseline, mean (mITT): -13.82 min; Sleep Period (Time in Bed), change from baseline, mean difference (JZP-110 − Placebo) (mITT): −29.80 min; Sleep Period (Time in Bed), change from baseline, median (mITT): -23.37 min; Sleep Period (Time in Bed), change from baseline, median difference (JZP-110 − Placebo) (mITT): −28.00 min; Total Sleep Time, change from baseline, mean (mITT): -16.29 min; Total Sleep Time, change from baseline, mean difference (JZP-110 − Placebo) (mITT): −37.92 min; Total Sleep Time, change from baseline, median (mITT): -19.76 min; Total Sleep Time, change from baseline, median difference (JZP-110 − Placebo) (mITT): −34.31 min; WASO, change from baseline, mean (mITT): 1.45 min; WASO, change from baseline, mean difference (JZP-110 − Placebo) (mITT): 3.91 min; WASO, change from baseline, median (mITT): -0.69 min; WASO, change from baseline, median difference (JZP-110 − Placebo) (mITT): 1.07 min

No dose or concentration is given here for some results.
